Measured values published in article PMC9170038, “Crowdsourced RNA design discovers diverse, reversible, efficient, self-contained molecular switches”.
Where a protein sequence is shown, tags need not be part of it.

Target: T1, MS2 coat protein, dlFG mutant del68-81insG (Escherichia phage MS2) (UniProt P03612)
T1 sequence (looked up, limits assumed): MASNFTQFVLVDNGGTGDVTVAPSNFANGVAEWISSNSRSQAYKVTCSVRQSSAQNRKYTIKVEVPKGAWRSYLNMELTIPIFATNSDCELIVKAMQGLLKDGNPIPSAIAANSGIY
Test: binding assay
Settings: 4 mM Mg2+, RNA-MaP array, 100 mM Tris-HCl pH 7.5, 80 mM KCl, 4 mM MgCl2, 0.1 mg/mL BSA, 1 mM DTT, 0.01 mg/mL yeast tRNA, 0.01% Tween-20, protein 1.5 nM to 3 uM, 37 C (Table S3), purified recombinant protein

| Sequence | Kd (FMN 200 uM) [nM] | Kd (no ligand) [nM] | other results |
| --- | --- | --- | --- |
| UAGGACUUCGUAGGAUAUGUAUUUGAUUUCUACAUGAGGAUCACCCAUGUUUGCAUUUUUUUUUGACAGAAGGACGUGGUCCUA [Eterna 6431119 (Same State NG 2)] | > 3000 | – | – |
| UUGGGACUAUCAGGAUAUGGUGUAGCCCAGUAAAGGACAUGAGGAUCACCCAUGUACCAUUGGUACCAGAAGGGAUGAUCCUAC [Eterna 6461334 (Same State NG 2)] | – | > 3000 | – |
| GGAAACUACGAGAAGGACAUGUGGUCCUUCAGUUACAUGAGGAUCACCCAUGUAGGAUAUCGUAGUUUCAGGAUCGUGAGAUCU [Eterna 6452587 (Inverted Small Loop Exclusion NG 1)] | > 3000 | – | – |
| UUAUAAGUACCGGUCCUCAGAUCCUCAUGACGAGGACCGGUACGGCCGCCACUCGAAACAUGAGGAUCACCCAUGUAAUAAUACC [Eterna 7639013 (Exclusion - Tryptophan A)] | – | – | Kd (L-tryptophan 2.4 mM): > 3000 nM |
| UUUACAUGAGGAUCACCCAUGUGCCAUGAUACCAGACAUGAAAAUGUCCCUUGGCAGCAUGAGUGAUGCAUCCGAAAGGAUGUUU [Eterna 7610324 (Same State - Theophylline A)] | – | > 3000 | – |
| CCUCAUGUGGUGCUGCACAUGAGAGGUGAUACCAGCAUCGAAAGAUGCCCUUGGCAGCACCAACAUGAGGAUCACCCAUGUAAUA [Eterna 7709796 (Same State - Theophylline A)] | – | > 3000 | – |
| GGACUGGACUAGAAGGGUGAUGCGCUCGCAGACACAGGAUAUAGUCACAUGAGGAUCACCCAUGUCGGUCCAAGUGAAGAAACU [Eterna 6425259 (Inverted Same State NG 1)] | > 3000 | – | – |
| ACCGACACUUACAUGAGGAUCACCCAUGUGUGUAAUCGGACACAGGAUAUCCAUGGUAAGUAUCGGGAGAAGGGUGGAAAGAAA [Eterna 6148933 (Same State NG 3)] | – | > 3000 | – |
| CCCUUUAGAAAAGGGACAUGAGGAUCACCCAUGUAGGCUGCACAGGAUAUCGAUCGGAGGCGGUACGAGAAGGGUGAUGUCAUU [Eterna 6149047 (Same State NG 3)] | – | > 3000 | – |
